The record followed here is paper PMC7819943, “Rice protein-binding microarrays: a tool to detect cis-acting elements near promoter regions in rice”.

Chains of the proteins cited; added tags and fusions are not shown.
UniProt Q0JBA9, entry or part of it: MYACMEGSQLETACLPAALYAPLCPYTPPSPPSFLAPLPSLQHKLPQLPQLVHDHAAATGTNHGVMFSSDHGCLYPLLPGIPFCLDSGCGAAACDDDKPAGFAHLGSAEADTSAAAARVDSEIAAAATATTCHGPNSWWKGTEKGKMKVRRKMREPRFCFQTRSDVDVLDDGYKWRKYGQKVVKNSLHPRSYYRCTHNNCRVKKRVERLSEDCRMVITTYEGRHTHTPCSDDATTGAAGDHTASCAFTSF

The other results are listed elsewhere or left out.

The assay deals with OsWRKY34 (Oryza sativa, UniProt Q0JBA9 1-250). Nature of the assay: protein-binding microarray (RPBM); PBS, 2% BSA, 51.3 ng/ul salmon testes DNA, 50 uM zinc acetate, 200 nM TF, 25 C, 1 h; high values mean tight binding. The note with it: protein: recombinant; tags: N-terminal polyhistidine and DsRed monomer fusion (pET32a); label: CyDye5-dUTP incorporated in the synthesized complementary strand; 3' TTTTT single-stranded linker to array surface; dsDNA, one strand shown. The method, boiled down: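 For the binding signal, per-feature fluorescence intensity was read in arbitrary units on an Axon 4000B scanner. Before scanning, a 2% BSA-blocked custom Agilent array made double-stranded with Cy5-dUTP was washed after 1 h at 25 °C with 200 nM protein and 50 µM zinc acetate. The proteins were Ni–NTA-purified transcription factors with N-terminal polyhistidine and DsRed fusions, expressed in E. coli BL21-CodonPlus.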
For the sequence “TTTCCTAAGCCTATCTTTCTCTTCTTGATCTCTGCTGAATCGGAGTCACCTAGTGCAG”, the binding signal was 8620 fluorescence intensity (a.u.).
Then “AATTGCCACACCCTTTTTAAAAAACCTGATATGTGTCCATCGGAGTCACCTAGTGCAG”, with 8460 fluorescence intensity (a.u.).
The value for “GCTAGAGAGAGATCATGTCGGTGGCGGCGGAGGGGAAGGACGGAGTCACCTAGTGCAG” was 10700 fluorescence intensity (a.u.); that for “CGTTCATTTTGTTTCAATTGACCATATAAGACTTTTTCTCCGGAGTCACCTAGTGCAG” was 8160 fluorescence intensity (a.u.); that for “TCTATCTTCTCTTCCTTCCTTTTTTGCGTGGAAGGCATGTCGGAGTCACCTAGTGCAG” was 10400 fluorescence intensity (a.u.).
The value for “ACTCTGGATGATTTTTTTTATCTCGTACTCTCATCTCGGACGGAGTCACCTAGTGCAG” was 12300 fluorescence intensity (a.u.); that for “AAAATGGTTGGCTACTATGGGCTGGGATCGGTTTCTTTGCCGGAGTCACCTAGTGCAG” was 8920 fluorescence intensity (a.u.).
“CCTTCCCATTCGACCGCCGCCCGCCCTGTCCGCGCCTGACCGGAGTCACCTAGTGCAG”: the binding signal is 11300 fluorescence intensity (a.u.).
On to “CTTCTGTTTCTTGGCCACATCGAGTAAAAATGTCCTCGTCCGGAGTCACCTAGTGCAG”, for which the binding signal was 11900 fluorescence intensity (a.u.).
The value for “GCCTTACTCACGGTGATTAGTTTAACCCCATCCTTTGGTTCGGAGTCACCTAGTGCAG” was 8580 fluorescence intensity (a.u.).
Then “CGCCACTATGTGGATGTGTTCTTGCTGTGTTATCTAGATACGGAGTCACCTAGTGCAG”, with 9020 fluorescence intensity (a.u.).
The value for “GGATCTTTCATCGTAGTTTATTTTTCAGCCTTTGTTTTTACGGAGTCACCTAGTGCAG” was 12800 fluorescence intensity (a.u.); that for “CTTATGCTGCTTCTGTTGGTTTTGAAAGATTTCGAATTCACGGAGTCACCTAGTGCAG” was 9570 fluorescence intensity (a.u.).
For the sequence “GTGTTTTGCAAGGTTGTTTCTTTACCTTATCTATATACATCGGAGTCACCTAGTGCAG”, the binding signal was 9790 fluorescence intensity (a.u.).
Regarding “GCGCCTCTACACCGCGCTCGTCATCCTTCCGCCGCCGCTCCGGAGTCACCTAGTGCAG”, the binding signal was 11300 fluorescence intensity (a.u.).
For the sequence “GGTGCAGGAGGAGGAGGGGAAAGAGCGGCGGGGAGAAGTTCGGAGTCACCTAGTGCAG”, the binding signal is 10700 fluorescence intensity (a.u.).
Then “TCCGTCTTTTTTAGTAACTTCCATTTTTTATTGGAATGGTCGGAGTCACCTAGTGCAG”, with 8340 fluorescence intensity (a.u.); and “CATGGCGATCTACTAGGCAAATCCATCGTCCCTTGTGAATCGGAGTCACCTAGTGCAG”, with 8230 fluorescence intensity (a.u.).
For “GAATTTTGATACATGTTCCACCATTCATCTTTTTTATTTTCGGAGTCACCTAGTGCAG”, the binding signal is 9790 fluorescence intensity (a.u.).
The value for “GCAGCTCATACACATAGCTAGCTCAGCTGAGACACACACACGGAGTCACCTAGTGCAG” was 8440 fluorescence intensity (a.u.).
Then “GTGATTTGGTGATTGTATGGGGACTACTATTTAACGCACTCGGAGTCACCTAGTGCAG”, with 10800 fluorescence intensity (a.u.); and “AGAGCAGAGAAGTGCGATTAGGCATGTGGTCCAAAATCTTCGGAGTCACCTAGTGCAG”, with 12900 fluorescence intensity (a.u.).
In the case of “AACCATGTCACTGCTCTAAACTCGCCTTTTGTTGACTTGGCGGAGTCACCTAGTGCAG”, the binding signal was 10600 fluorescence intensity (a.u.).
